Results published in article PMC9233679.
These are yes or no findings as the source states them, for the method shown. In cells and extracts the contact can be indirect. A yes stands for co-enrichment or nearness to the bait. Other partners may have been found.

Chains of the proteins cited; added tags and fusions are not shown.
UniProt Q92830: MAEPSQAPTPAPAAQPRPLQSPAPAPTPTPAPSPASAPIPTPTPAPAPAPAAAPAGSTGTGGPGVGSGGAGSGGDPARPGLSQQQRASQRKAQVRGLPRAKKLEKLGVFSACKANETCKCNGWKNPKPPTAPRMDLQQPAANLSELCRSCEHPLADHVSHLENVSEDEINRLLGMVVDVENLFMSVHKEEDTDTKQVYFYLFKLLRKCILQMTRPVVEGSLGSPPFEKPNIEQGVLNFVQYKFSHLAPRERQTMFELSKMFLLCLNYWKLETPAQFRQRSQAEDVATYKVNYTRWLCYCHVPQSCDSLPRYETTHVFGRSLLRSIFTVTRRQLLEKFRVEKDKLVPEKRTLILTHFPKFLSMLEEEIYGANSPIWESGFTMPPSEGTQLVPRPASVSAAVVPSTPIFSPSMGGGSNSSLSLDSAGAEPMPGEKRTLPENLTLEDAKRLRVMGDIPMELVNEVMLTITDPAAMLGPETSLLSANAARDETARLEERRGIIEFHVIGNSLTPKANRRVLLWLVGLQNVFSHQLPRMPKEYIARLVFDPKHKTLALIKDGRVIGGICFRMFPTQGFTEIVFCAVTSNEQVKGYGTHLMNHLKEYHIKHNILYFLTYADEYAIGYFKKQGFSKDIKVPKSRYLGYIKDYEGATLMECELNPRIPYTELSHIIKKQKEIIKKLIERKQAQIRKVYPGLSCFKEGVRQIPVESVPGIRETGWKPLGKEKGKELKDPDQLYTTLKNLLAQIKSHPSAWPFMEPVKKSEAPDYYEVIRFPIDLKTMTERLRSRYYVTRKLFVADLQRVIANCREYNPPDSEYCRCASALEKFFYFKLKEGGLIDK
UniProt Q8TEK3: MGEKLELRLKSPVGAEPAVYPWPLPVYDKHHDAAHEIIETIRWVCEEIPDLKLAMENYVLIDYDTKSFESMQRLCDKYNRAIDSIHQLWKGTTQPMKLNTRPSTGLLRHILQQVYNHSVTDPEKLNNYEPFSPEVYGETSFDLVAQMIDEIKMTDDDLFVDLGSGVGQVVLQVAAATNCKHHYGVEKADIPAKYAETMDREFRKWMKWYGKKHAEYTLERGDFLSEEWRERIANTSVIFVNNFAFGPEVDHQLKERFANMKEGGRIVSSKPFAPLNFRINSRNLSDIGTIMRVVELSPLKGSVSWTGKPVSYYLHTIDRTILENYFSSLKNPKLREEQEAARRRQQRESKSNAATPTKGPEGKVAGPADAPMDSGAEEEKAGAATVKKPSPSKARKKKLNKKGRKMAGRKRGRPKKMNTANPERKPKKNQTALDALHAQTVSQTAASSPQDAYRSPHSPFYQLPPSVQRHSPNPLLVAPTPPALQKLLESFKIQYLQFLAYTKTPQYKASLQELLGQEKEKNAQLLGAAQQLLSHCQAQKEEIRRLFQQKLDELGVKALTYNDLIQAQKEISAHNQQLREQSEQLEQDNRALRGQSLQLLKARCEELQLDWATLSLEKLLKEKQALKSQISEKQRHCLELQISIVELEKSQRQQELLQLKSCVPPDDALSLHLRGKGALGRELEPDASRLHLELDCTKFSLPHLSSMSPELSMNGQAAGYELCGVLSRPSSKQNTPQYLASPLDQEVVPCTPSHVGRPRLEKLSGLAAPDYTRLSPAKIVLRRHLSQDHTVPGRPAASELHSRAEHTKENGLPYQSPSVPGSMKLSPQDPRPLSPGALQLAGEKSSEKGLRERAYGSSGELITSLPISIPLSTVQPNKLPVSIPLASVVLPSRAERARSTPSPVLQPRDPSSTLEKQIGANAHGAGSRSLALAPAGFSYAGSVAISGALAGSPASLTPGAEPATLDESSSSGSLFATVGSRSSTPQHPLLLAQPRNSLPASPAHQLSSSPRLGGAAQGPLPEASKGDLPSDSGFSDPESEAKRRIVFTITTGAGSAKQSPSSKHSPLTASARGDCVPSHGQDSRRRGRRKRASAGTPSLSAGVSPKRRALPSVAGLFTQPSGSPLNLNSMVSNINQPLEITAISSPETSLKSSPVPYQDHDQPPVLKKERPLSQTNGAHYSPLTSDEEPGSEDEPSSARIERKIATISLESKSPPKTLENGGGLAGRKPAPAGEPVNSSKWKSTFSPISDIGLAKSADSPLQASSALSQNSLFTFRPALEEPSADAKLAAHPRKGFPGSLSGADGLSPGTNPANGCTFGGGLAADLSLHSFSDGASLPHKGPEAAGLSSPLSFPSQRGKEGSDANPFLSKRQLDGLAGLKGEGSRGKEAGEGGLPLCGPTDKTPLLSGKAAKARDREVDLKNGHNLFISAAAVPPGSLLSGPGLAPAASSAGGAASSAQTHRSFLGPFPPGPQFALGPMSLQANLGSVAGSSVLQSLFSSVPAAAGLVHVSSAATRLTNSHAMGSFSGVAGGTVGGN
UniProt Q9H9B1: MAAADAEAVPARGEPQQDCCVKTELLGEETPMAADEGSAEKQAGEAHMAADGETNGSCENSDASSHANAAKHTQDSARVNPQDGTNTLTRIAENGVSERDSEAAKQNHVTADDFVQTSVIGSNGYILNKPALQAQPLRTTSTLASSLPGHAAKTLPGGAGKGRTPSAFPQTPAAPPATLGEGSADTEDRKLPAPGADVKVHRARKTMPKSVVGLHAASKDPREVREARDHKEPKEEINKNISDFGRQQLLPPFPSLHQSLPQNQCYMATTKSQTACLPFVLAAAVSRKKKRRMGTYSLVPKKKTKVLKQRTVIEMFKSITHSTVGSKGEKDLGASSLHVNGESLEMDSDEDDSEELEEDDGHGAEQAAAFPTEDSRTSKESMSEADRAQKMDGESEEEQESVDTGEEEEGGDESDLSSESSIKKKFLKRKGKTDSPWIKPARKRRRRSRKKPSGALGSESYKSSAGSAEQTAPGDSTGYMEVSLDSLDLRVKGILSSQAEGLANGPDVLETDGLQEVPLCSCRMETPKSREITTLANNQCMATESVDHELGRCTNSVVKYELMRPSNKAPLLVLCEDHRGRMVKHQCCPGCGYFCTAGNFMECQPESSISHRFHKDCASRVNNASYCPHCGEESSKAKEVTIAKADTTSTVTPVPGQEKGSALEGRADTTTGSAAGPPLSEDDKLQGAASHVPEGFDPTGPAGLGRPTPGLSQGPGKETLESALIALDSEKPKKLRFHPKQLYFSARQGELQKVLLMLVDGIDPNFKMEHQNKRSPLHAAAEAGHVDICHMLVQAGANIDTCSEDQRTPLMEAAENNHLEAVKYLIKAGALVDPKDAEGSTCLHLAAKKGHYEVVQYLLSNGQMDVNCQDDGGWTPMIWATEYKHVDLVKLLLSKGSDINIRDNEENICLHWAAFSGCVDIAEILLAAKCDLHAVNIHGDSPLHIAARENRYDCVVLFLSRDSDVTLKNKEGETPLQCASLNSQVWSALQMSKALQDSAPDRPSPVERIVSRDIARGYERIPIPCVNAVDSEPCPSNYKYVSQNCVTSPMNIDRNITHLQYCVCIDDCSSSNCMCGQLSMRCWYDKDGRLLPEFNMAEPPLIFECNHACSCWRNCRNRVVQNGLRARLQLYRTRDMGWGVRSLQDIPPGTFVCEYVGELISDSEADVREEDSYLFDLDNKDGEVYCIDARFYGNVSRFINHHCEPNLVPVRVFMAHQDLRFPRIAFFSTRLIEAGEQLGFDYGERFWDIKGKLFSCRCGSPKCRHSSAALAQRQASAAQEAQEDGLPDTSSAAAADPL
UniProt Q92993: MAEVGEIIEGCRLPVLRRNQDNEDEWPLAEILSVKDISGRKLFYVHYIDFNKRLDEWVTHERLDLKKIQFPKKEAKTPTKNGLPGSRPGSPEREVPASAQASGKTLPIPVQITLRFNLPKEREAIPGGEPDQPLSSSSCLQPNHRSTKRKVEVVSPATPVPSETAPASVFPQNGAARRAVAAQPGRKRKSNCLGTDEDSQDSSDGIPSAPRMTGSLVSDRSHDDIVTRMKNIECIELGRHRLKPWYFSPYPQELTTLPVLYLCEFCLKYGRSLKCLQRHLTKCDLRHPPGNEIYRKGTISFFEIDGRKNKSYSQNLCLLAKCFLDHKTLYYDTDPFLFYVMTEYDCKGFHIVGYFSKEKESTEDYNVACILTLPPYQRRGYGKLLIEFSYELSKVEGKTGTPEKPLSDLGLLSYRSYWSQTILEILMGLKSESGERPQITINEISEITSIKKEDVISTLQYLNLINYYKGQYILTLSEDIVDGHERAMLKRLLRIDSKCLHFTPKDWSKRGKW

T1: S100A11 (human (endogenous in BxPC3 and SW1990)) (UniProt P31949)
T1 sequence: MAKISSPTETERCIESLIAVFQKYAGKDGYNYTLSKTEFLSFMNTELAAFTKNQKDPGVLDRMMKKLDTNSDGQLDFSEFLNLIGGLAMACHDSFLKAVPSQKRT

B1: SMYD3 (enzyme, UniProt Q9H7B4 1-428)
chain: MEPLKVEKFATAKRGNGLRAVTPLRPGELLFRSDPLAYTVCKGSRGVVCDRCLLGKEKLMRCSQCRVAKYCSAKCQKKAWPDHKRECKCLKSCKPRYPPDSVRLLGRVVFKLMDGAPSESEKLYSFYDLESNINKLTEDKKEGLRQLVMTFQHFMREEIQDASQLPPAFDLFEAFAKVICNSFTICNAEMQEVGVGLYPSISLLNHSCDPNCSIVFNGPHLLLRAVRDIEVGEELTICYLDMLMTSEERRKQLRDQYCFECDCFRCQTQDKDADMLTGDEQVWKEVQESLKKIEELKAHWKWEQVLAMCQAIISSNSERLPDINIYQLKVLDCAMDACINLGLLEEALFYGTRTMEPYRIFFPGSHPVRGVQVMKVGKLQLHQGMFPQAMKNLRLAFDIMRVTHGREHSLIEDLILLLEECDANIRAS
B2: SETD7 (enzyme, UniProt Q8WTS6 1-366)
chain: MDSDDEMVEEAVEGHLDDDGLPHGFCTVTYSSTDRFEGNFVHGEKNGRGKFFFFDGSTLEGYYVDDALQGQGVYTYEDGGVLQGTYVDGELNGPAQEYDTDGRLIFKGQYKDNIRHGVCWIYYPDGGSLVGEVNEDGEMTGEKIAYVYPDERTALYGKFIDGEMIEGKLATLMSTEEGRPHFELMPGNSVYHFDKSTSSCISTNALLPDPYESERVYVAESLISSAGEGLFSKVAVGPNTVMSFYNGVRITHQEVDSRDWALNGNTLSLDEETVIDVPEPYNHVSKYCASLGHKANHSFTPNCIYDMFVHPRFGPIKCIRTLRAVEADEELTVAYGYDHSPPGKSGPEAPEWYQVELKAFQATQQK

target: T1, S100A11 (human (endogenous in BxPC3 and SW1990)); assay: affinity purification with mass spectrometry; Co-IP of S100A11 followed by MS to screen interactive partners; cell line not stated

binding | Molecule
binds | KAT2A (from UniProt Q92830 1-837) (enzyme)
binds | DOT1L (from UniProt Q8TEK3 1-1537) (enzyme)
binds | EHMT1 (from UniProt Q9H9B1 1-1298) (enzyme)
binds | KAT5 (from UniProt Q92993 1-513) (enzyme)
binds | B1
binds | B2
